# Experimental data published in the supplement of paper PMC10032668.
# Chains of the proteins cited; added tags and fusions are not shown.
# CD2AP, Q9Y5K6, UniProt Q9Y5K6, whole entry: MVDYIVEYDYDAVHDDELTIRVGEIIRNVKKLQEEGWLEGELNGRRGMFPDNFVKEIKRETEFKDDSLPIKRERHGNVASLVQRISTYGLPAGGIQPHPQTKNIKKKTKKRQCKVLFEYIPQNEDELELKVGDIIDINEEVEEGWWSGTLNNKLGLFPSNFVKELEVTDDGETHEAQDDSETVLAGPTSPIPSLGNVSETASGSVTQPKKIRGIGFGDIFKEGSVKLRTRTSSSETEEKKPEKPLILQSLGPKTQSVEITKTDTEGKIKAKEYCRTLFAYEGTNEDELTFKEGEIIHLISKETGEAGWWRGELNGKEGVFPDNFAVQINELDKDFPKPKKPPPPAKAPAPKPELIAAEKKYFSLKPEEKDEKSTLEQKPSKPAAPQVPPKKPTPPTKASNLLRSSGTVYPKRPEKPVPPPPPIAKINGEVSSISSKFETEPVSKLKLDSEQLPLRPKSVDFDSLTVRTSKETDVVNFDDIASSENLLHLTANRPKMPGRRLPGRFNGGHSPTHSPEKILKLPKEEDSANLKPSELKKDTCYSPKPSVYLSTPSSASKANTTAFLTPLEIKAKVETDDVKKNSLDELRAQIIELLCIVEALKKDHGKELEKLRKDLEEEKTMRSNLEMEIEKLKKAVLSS
# SMN2, Q16637, UniProt Q16637, whole entry: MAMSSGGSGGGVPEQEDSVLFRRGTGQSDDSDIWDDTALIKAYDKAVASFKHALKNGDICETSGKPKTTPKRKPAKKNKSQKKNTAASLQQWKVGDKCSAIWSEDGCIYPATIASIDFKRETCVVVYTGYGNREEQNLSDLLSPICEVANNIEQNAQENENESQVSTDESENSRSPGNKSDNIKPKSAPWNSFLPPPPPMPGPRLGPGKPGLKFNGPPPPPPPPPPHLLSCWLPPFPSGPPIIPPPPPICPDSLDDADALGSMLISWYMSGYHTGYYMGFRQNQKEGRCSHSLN
# YY1, P25490, UniProt P25490, whole entry: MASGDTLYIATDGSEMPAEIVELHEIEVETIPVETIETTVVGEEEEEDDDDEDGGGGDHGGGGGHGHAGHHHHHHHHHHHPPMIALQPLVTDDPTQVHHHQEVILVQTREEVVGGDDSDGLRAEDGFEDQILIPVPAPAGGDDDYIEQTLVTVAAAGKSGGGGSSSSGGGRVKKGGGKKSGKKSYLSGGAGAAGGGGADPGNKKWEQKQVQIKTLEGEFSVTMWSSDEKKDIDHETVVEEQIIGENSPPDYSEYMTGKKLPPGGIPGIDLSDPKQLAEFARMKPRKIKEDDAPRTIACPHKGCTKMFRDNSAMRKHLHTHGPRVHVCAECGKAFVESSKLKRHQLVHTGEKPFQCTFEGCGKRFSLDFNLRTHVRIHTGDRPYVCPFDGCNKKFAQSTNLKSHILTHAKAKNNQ
# This is one part of the list. Only hits are listed; about a third recur on repeated control peptides.
# Tests used:
# Test in all cases: PRISMA enrichment of interactor (LFQ) in peptide spot vs all other peptide spots (log2 fold change); higher = stronger / more specific binding of the interactor to the peptide
# AK4, P27144 = target: AK4, P27144
# Description: (§1)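 PRISMA: 15-aa overlapping tiles (offset 8 aa) of 60 microproteins, plus SOS1/GLUT1 control peptides, were spot-synthesized on cellulose membranes in triplicate. Membranes were incubated with benzonase-treated HEK293T lysate, and bound proteins were identified by LC-MS/MS with LFQ. Enrichment is the log2 fold change of each protein in one spot versus all other spots. Only interactors passing the significance cutoff are listed.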
# CD2AP, Q9Y5K6 = target: CD2AP, Q9Y5K6
# Description: as §1
# COG4, Q9H9E3 = target: COG4, Q9H9E3
# Description: as §1
# DDX46, Q7L014 = target: DDX46, Q7L014
# Description: as §1
# DNAJC7, Q99615 = target: DNAJC7, Q99615
# Description: as §1
# GRB10, Q13322 = target: GRB10, Q13322
# Description: as §1
# HLA-B = target: HLA-B
# Description: as §1
# HLTF, Q14527 = target: HLTF, Q14527
# Description: as §1
# HOXB6, P17509 = target: HOXB6, P17509
# Description: as §1
# OPA1, O60313 = target: OPA1, O60313
# Description: as §1
# PRRC2A, P48634 = target: PRRC2A, P48634
# Description: as §1
# SPTY2D1, Q68D10 = target: SPTY2D1, Q68D10
# Description: as §1
# TIAL1, Q01085 = target: TIAL1, Q01085
# Description: as §1
# UFD1, Q92890 = target: UFD1, Q92890
# Description: as §1
# ZBTB11, O95625 = target: ZBTB11, O95625
# Description: as §1
# BZW1, Q7L1Q6 = target: BZW1, Q7L1Q6
# Description: as §1
# CCDC59, Q9P031 = target: CCDC59, Q9P031
# Description: as §1
# CHAMP1, Q96JM3 = target: CHAMP1, Q96JM3
# Description: as §1
# FADS1, O60427 = target: FADS1, O60427
# Description: as §1
# FUBP3, Q96I24 = target: FUBP3, Q96I24
# Description: as §1
# HIRIP3, Q9BW71 = target: HIRIP3, Q9BW71
# Description: as §1
# HMGN2, P05204 = target: HMGN2, P05204
# Description: as §1
# HMGN4, O00479 = target: HMGN4, O00479
# Description: as §1
# HSDL1, Q3SXM5 = target: HSDL1, Q3SXM5
# Description: as §1
# MARCKS, P29966 = target: MARCKS, P29966
# Description: as §1
# MRPL11, Q9Y3B7 = target: MRPL11, Q9Y3B7
# Description: as §1
# MTPAP, Q9NVV4 = target: MTPAP, Q9NVV4
# Description: as §1
# NOP56, O00567 = target: NOP56, O00567
# Description: as §1
# PCM1, Q15154 = target: PCM1, Q15154
# Description: as §1
# PPHLN1, Q8NEY8 = target: PPHLN1, Q8NEY8
# Description: as §1
# PSMD8, P48556 = target: PSMD8, P48556
# Description: as §1
# RAB2A, P61019 = target: RAB2A, P61019
# Description: as §1
# RABL3, Q5HYI8 = target: RABL3, Q5HYI8
# Description: as §1
# SF3A1, Q15459 = target: SF3A1, Q15459
# Description: as §1
# SF3B4, Q15427 = target: SF3B4, Q15427
# Description: as §1
# SF3B5, Q9BWJ5 = target: SF3B5, Q9BWJ5
# Description: as §1
# SMN2, Q16637 = target: SMN2, Q16637
# Description: as §1
# TFIP11, Q9UBB9 = target: TFIP11, Q9UBB9
# Description: as §1
# THOC3, Q96J01 = target: THOC3, Q96J01
# Description: as §1
# YY1, P25490 = target: YY1, P25490
# Description: as §1
Binder,"PRISMA enrichment of interactor (log2) (AK4, P27144)","PRISMA enrichment of interactor (log2) (CD2AP, Q9Y5K6)","PRISMA enrichment of interactor (log2) (COG4, Q9H9E3)","PRISMA enrichment of interactor (log2) (DDX46, Q7L014)","PRISMA enrichment of interactor (log2) (DNAJC7, Q99615)","PRISMA enrichment of interactor (log2) (GRB10, Q13322)",PRISMA enrichment of interactor (log2) (HLA-B),"PRISMA enrichment of interactor (log2) (HLTF, Q14527)","PRISMA enrichment of interactor (log2) (HOXB6, P17509)","PRISMA enrichment of interactor (log2) (OPA1, O60313)","PRISMA enrichment of interactor (log2) (PRRC2A, P48634)","PRISMA enrichment of interactor (log2) (SPTY2D1, Q68D10)","PRISMA enrichment of interactor (log2) (TIAL1, Q01085)","PRISMA enrichment of interactor (log2) (UFD1, Q92890)","PRISMA enrichment of interactor (log2) (ZBTB11, O95625)","PRISMA enrichment of interactor (log2) (BZW1, Q7L1Q6)","PRISMA enrichment of interactor (log2) (CCDC59, Q9P031)","PRISMA enrichment of interactor (log2) (CHAMP1, Q96JM3)","PRISMA enrichment of interactor (log2) (FADS1, O60427)","PRISMA enrichment of interactor (log2) (FUBP3, Q96I24)","PRISMA enrichment of interactor (log2) (HIRIP3, Q9BW71)","PRISMA enrichment of interactor (log2) (HMGN2, P05204)","PRISMA enrichment of interactor (log2) (HMGN4, O00479)","PRISMA enrichment of interactor (log2) (HSDL1, Q3SXM5)","PRISMA enrichment of interactor (log2) (MARCKS, P29966)","PRISMA enrichment of interactor (log2) (MRPL11, Q9Y3B7)","PRISMA enrichment of interactor (log2) (MTPAP, Q9NVV4)","PRISMA enrichment of interactor (log2) (NOP56, O00567)","PRISMA enrichment of interactor (log2) (PCM1, Q15154)","PRISMA enrichment of interactor (log2) (PPHLN1, Q8NEY8)","PRISMA enrichment of interactor (log2) (PSMD8, P48556)","PRISMA enrichment of interactor (log2) (RAB2A, P61019)","PRISMA enrichment of interactor (log2) (RABL3, Q5HYI8)","PRISMA enrichment of interactor (log2) (SF3A1, Q15459)","PRISMA enrichment of interactor (log2) (SF3B4, Q15427)","PRISMA enrichment of interactor (log2) (SF3B5, Q9BWJ5)","PRISMA enrichment of interactor (log2) (SMN2, Q16637)","PRISMA enrichment of interactor (log2) (TFIP11, Q9UBB9)","PRISMA enrichment of interactor (log2) (THOC3, Q96J01)","PRISMA enrichment of interactor (log2) (YY1, P25490)"
WPHCEERQKPAVAAG [RP11-644F5.11],10.7,5.69,5.22,4.54,5.37,4.97,4.75,6.71,3.74,5.06,6.03,5.68,6.01,4.56,4.61,,,,,,,,,,,,,,,,,,,,,,,,,
SVKFQSQSKQKSIEE [MKKS_2],4.65,,,,,,,,,,,,,,,6,5.88,7.14,4.06,4.91,6.25,5.1,4.4,5.09,4.3,5.86,6.61,8.64,5.21,5.24,5.52,5.36,6.49,4.86,4.2,4.3,4.05,4.94,4.83,10.1
